Results taken from patent US20190218304A1, “POTENTIATING THE EFFECT OF ATP RELEASE” (INNATE PHARMA, priority 2017, published 2019).
No constants are given. Whether binding was seen depends on the method and setting. Some binding calls cover weakened binding; strength is not graded here.

How the values were obtained:
Assay in all cases: flow cytometry on transfected Hek-293T cells
CD39 mutant 13 (human) = target: T1, CD39 mutant 13 (human) (UniProt P49961)
T1 sequence: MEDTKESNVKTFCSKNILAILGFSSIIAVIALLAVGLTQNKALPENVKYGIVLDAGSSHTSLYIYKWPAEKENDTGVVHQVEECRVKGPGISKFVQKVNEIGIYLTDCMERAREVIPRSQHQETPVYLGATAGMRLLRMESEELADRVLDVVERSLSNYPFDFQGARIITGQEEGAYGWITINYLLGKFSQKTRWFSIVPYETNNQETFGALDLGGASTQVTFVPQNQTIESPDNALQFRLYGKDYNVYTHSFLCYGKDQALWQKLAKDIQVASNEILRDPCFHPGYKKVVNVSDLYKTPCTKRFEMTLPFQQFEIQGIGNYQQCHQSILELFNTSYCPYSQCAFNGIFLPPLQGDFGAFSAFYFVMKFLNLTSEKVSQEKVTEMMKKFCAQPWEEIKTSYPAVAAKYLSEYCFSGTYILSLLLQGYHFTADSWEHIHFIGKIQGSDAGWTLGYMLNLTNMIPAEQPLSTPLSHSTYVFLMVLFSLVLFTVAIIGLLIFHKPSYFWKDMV

CD39 mutant 16 (human) = target: T2, CD39 mutant 16 (human) (UniProt P49961)
T2 sequence: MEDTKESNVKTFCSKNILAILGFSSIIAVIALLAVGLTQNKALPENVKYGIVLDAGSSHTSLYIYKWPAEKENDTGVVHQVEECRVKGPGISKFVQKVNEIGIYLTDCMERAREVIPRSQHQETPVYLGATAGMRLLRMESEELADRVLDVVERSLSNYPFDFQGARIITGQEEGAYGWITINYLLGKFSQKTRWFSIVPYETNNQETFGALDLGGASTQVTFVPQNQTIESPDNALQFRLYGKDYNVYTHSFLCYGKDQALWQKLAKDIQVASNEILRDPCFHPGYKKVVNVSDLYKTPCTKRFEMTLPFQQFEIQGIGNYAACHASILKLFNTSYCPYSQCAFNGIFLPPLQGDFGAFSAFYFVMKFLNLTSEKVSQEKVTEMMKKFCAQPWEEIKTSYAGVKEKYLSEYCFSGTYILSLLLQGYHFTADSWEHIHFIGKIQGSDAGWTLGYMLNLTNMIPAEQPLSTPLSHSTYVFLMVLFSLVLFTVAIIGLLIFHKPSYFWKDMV

CD39 mutant 2B (human) = target: T3, CD39 mutant 2B (human) (UniProt P49961)
T3 sequence: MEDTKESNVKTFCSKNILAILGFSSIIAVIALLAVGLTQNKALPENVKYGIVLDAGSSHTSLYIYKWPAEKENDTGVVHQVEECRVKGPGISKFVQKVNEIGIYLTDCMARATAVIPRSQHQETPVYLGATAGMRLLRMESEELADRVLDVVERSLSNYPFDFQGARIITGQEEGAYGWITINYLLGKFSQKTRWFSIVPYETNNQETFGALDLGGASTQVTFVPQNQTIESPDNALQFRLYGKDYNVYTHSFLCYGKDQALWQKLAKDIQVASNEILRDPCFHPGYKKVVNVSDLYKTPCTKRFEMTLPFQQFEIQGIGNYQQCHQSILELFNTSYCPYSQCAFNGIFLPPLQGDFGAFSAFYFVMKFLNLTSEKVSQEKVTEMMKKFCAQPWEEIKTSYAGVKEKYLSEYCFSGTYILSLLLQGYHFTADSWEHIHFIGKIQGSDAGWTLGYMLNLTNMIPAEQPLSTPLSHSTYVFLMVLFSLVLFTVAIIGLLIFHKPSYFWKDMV

CD39 mutant 4 (human) = target: T4, CD39 mutant 4 (human) (UniProt P49961)
T4 sequence: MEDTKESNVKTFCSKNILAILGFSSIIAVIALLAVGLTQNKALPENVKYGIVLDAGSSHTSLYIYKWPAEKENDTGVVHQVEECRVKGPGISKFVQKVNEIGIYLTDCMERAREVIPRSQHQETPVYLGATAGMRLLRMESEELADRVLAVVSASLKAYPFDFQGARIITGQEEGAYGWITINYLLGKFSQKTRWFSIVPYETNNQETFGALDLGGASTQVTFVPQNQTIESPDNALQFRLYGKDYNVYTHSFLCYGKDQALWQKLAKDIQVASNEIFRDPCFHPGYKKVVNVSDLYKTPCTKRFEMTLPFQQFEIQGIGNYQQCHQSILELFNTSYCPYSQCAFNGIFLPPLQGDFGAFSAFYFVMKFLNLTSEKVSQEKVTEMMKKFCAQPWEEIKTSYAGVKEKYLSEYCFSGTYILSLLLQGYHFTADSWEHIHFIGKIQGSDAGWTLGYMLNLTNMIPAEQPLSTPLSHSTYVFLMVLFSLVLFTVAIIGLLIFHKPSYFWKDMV

CD39 mutant 17 (human) = target: T5, CD39 mutant 17 (human) (UniProt P49961)
T5 sequence: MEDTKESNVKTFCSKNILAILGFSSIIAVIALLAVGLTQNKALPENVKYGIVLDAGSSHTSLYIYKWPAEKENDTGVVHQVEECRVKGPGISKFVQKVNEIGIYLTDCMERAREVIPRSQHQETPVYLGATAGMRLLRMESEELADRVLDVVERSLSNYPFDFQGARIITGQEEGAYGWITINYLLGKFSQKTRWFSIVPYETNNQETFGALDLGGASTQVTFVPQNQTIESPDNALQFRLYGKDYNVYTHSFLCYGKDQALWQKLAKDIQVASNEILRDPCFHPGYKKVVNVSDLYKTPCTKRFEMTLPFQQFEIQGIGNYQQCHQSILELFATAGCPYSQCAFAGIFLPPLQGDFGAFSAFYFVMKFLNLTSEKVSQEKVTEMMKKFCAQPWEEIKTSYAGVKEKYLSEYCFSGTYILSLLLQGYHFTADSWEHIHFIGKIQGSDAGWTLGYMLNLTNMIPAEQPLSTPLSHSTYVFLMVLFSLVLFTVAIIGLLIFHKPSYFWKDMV

binding (CD39 mutant 13 (human)): binds
binding (CD39 mutant 16 (human)): binds
binding (CD39 mutant 2B (human)): binds
binding (CD39 mutant 4 (human)): binds
binding (CD39 mutant 17 (human)): binds
B1: antibody I-399 (antibody, V domains shown)
VH: PVQLQQPGAEVVMPGASVKLSCKASGYTFTSFWMNWMRQRPGQGLEWIGEIDPSDFYTNSNQRFKGKATLTVDKSSSTAYMQLSSLTSEDSAVYFCARGDFGWYFDVWGTGTSVTVSS
VL: EIVLTQSPTTMTSSPGEKITFTCSASSSINSNYLHWYQQKPGFSPKLLIYRTSNLASGVPTRFSGSGSGTSYSLTIGTMEAEDVATYYCQQGSSLPRTFGGGTKLEIK
